# Screen size: about 330,000 compounds; about 7,700 (2.3%) were called active. This list was built around the results that the source calls inconclusive (neither active nor inactive); the mix of calls is not that of the screen. Calls follow the shape of the dose curve; as a rule, active = well fitted inhibition curve with a large enough effect; inconclusive = small, poorly fitted or top-dose-only effect, or effect the other way; inactive = flat fitted curve, though single readings scatter. Potencies of inconclusive entries are doubtful fits and often do not repeat.
# Assay: qHTS screen for small molecules that inhibit ELG1-dependent DNA repair in human embryonic kidney (HEK293T) cells expressing luciferase-tagged ELG1; also: nearly all actives have a fitted effect of over 55% in size
# Conditions: HEK293T ELG1-luciferase reporter, luminescence, 16 h, DNA damage induced by 5-fluorouridine; activity change, negative = inhibition: at 46.1 µM (top of the series)
# Procedure, shortened: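 Reporter activity after DNA damage by 5-fluorouridine is monitored. Compound-treated cells incubate 16 hr at 37 °C, then ONE-Glo is added for 30 min before luminescence reading.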
# % is scaled to controls: 0 for no effect and ±100 for the full control effect; potency is read from the fitted curve at half-maximal effect.
SMILES,"activity change, negative = inhibition",Potency
O=c1c2ccccc2nc(-c2ccco2)n1-c1ccc(Br)cc1,inactive: 0%,–
COc1ccc2cc(C(=O)C3CCCN(C4CCOCC4)C3)ccc2c1 (stereo unspecified),inactive: -6.73%,–
COc1cc(C=C2C(=O)NC(=O)NC2=O)ccc1OCc1ccc([N+](=O)[O-])cc1,–,"inconclusive: 20.6 µM [activator, partial curve]"
Cc1ccc(-c2cc(-c3ccc(C)cc3)[n+](-c3ccccc3)c(-c3ccc(C)cc3)c2)cc1,–,"inconclusive: 3.16 µM [inhibitor, partial curve, poor fit]"
CCCCCCC(=O)N/N=C/c1c(O)n(CCCC)c(=S)[nH]c1=O,–,"inconclusive: 20.6 µM [inhibitor, single point]"
Cc1ccc2c(c1)N(C(C)C(=O)N1CCC3(CC1)OCCO3)C(=O)CO2 (stereo unspecified),inactive: -0.689%,–
c1ccc2c(CN3CCN(C4CCCCC4)CC3)c[nH]c2c1,–,"inconclusive: 15.8 µM [inhibitor, single point]"
CCN(CC)C(=O)[C@H]1C[C@H](CC(=O)NCC23CC4CC(CC(C4)C2)C3)C(=O)N2CCc3c([nH]c4cc(-c5ccco5)ccc34)[C@]12C,–,"inconclusive: 6.51 µM [inhibitor, partial curve, poor fit]"
COc1cc2[nH]c(=S)n(-c3ccccc3)c(=O)c2cc1OC,inactive: -5.88%,–
COC(=O)c1c(C)[nH]c(C(=O)C(C)[N+]23CCN(CC2)CC3)c1C (stereo unspecified),inactive: 14.9%,–
Cc1cccc(N2CCN(C(=O)c3ccc(CNc4c(N5CCC(C)CC5)c(=O)c4=O)cc3)CC2)c1C,–,"inconclusive: 4.11 µM [inhibitor, partial curve, poor fit]"
Nc1cc(N2CCNCC2)ccc1[N+](=O)[O-],–,"inconclusive: 16.4 µM [activator, partial curve, poor fit]"
CN1CC(C(=O)c2ccccc2)C(C(=O)c2ccccc2)C1 (stereo unspecified),–,"inconclusive: 6.51 µM [activator, partial curve, poor fit]"
O=P(Oc1ccccc1)(Oc1ccccc1)C(Nc1ccccc1)c1ccccc1 (stereo unspecified),–,active: 20.6 µM
Cc1ccccc1N1C(=O)NC(=O)/C(=C\c2ccc3c(c2)CCCN3Cc2ccccc2)C1=O,inactive: 10.7%,–
CCOC(=O)c1c(-c2ccccc2)oc2ccc(OC(=O)N(C)C)cc12,–,"inconclusive: 9.2 µM [inhibitor, partial curve, poor fit]"
O=c1c2ccccc2nc(/C=C/c2cccnc2)n1Cc1ccccc1,–,"inconclusive: 18.3 µM [inhibitor, single point]"
C/C(=N\NC(=O)c1ccncc1)c1c(O)n(Cc2ccccc2)c(=O)[nH]c1=O,–,"inconclusive: 32.6 µM [inhibitor, single point]"
Cc1cc(OCCCC(=O)NCc2cccs2)ccc1Cl,inactive: -1.1%,–
COc1ccc(N2C(=O)NC(=O)/C(=C/c3ccc([N+](=O)[O-])s3)C2=O)cc1,inactive: 19.1%,–
Cc1ccc(NC(=O)CSc2nnc([C@@H](N)Cc3c[nH]c4ccccc34)o2)c(C)c1,–,"inconclusive: 1.16 µM [inhibitor, single point]"
O=C(CCn1c(=O)oc2ccccc21)N1CCC2(CC1)OCCO2,–,"inconclusive: 29.1 µM [activator, single point]"

# Among those listed so far, 3 contain a nitro group on carbon.
SMILES,"activity change, negative = inhibition",Potency
COc1cc(C=C2C(=O)NC(=O)NC2=O)ccc1OCc1ccc([N+](=O)[O-])cc1,–,"inconclusive: 20.6 µM [activator, partial curve]"
Nc1cc(N2CCNCC2)ccc1[N+](=O)[O-],–,"inconclusive: 16.4 µM [activator, partial curve, poor fit]"
COc1ccc(N2C(=O)NC(=O)/C(=C/c3ccc([N+](=O)[O-])s3)C2=O)cc1,inactive: 19.1%,–

# Additional records.

SMILES,"activity change, negative = inhibition",Potency
Cc1c(C)c2ccc(OCC(=O)N3C[C@H]4C[C@@H](C3)c3cccc(=O)n3C4)c(C)c2oc1=O,–,"inconclusive: 29.1 µM [activator, single point]"
COc1ccc(-n2c(-c3ccccc3[N+](=O)[O-])nc3ccccc3c2=O)cc1,inactive: -12%,–
C/C(=C\c1ccc(N(C)C)cc1)[N+](=O)[O-],–,"inconclusive: 18.4 µM [inhibitor, partial curve]"
O=C1NC(=O)C(=Cc2cn(CCOc3ccc4c(c3)OCO4)c3ccccc23)C(=O)N1,–,"inconclusive: 29.1 µM [activator, single point]"
Cc1ccc(-c2nc(N3CCOCC3)s[n+]2-c2ccccc2)cc1,–,"inconclusive: 14.6 µM [activator, partial curve]"
COc1cc(/C=C/c2nc3ccccc3c(=O)n2-c2ccccc2O)ccc1O,–,"inconclusive: 7.3 µM [inhibitor, partial curve]"
C[n+]1c2ccccc2nc2ccc(NCCO)cc21,–,active: 8.2 µM
CC1CN=C(Nc2ccc(N(C)C)cc2)S1 (stereo unspecified),–,"inconclusive: 20.6 µM [activator, partial curve, poor fit]"
COCCCn1c(N)c(C(=O)NCc2ccco2)c2nc3ccccc3nc21,–,"inconclusive: 4.11 µM [inhibitor, single point]"
Cn1c(O)c(C=Nc2ccc(F)cc2)c(=O)[nH]c1=O,inactive: 21.1%,–
CCOC(=O)c1oc2ccc(S(=O)(=O)n3nc(-c4ccc(Cl)cc4)cc3N)cc2c1C,–,"inconclusive: 9.2 µM [inhibitor, partial curve, poor fit]"
C/C(=N\N(C)c1ccccc1)c1c(O)[nH]c(=O)[nH]c1=O,–,"inconclusive: 7.3 µM [inhibitor, partial curve]"
C#CCOc1ccc2c(c1)c(C(C)=O)c(C)n2Cc1ccccc1,–,active: 20.6 µM
C[C@]12CC[C@@H](O)CC1=CCC1C2CC[C@]2(C)C(=O)[C@H](F)CC12 (stereo partly specified),inactive: 0.808%,–
Cc1cc(C(=O)OCC(=O)Nc2ccccc2F)c(C)n1C1CC1,–,"inconclusive: 10.3 µM [activator, partial curve]"
C[C@H]1CC[C@@H]2[C@@H](C)[C@H]3[C@H](C[C@H]4[C@@H]5CC=C6C[C@@H](O[C@@H]7O[C@H](CO)[C@H](O)[C@H](O[C@@H]8O[C@H](CO)[C@@H](O)[C@H](O)[C@H]8O)[C@H]7O[C@@H]7O[C@@H](C)[C@H](O)[C@@H](O)[C@H]7O)CC[C@]6(C)[C@H]5CC[C@]34C)N2C1,–,"inconclusive: 32.6 µM [inhibitor, single point]"
O=c1c2ccccc2nc(-c2ccccc2Cl)n1-c1cccc(O)c1,inactive: -15%,–
CCOP(=O)(OCC)c1nc(-c2ccc(F)cc2)oc1NCc1ccccc1,–,"inconclusive: 25.9 µM [inhibitor, partial curve, poor fit]"
O=c1[nH]c(=S)n(CCC2=CCCCC2)c(O)c1/C=N/Nc1ccccc1,–,"inconclusive: 1.83 µM [inhibitor, full curve, poor fit]"
CNC(=O)c1cccn(Cc2cccc(C(F)(F)F)c2)c1=O,–,"inconclusive: 20.6 µM [activator, partial curve]"
Cc1cc2oc(=O)cc(-c3ccccc3)c2c(C)c1-c1ccc(CO)cc1,–,"inconclusive: 29.1 µM [inhibitor, single point]"
NS(=O)(=O)c1cc(C(=O)OCC(=O)Nc2ccc3[nH]c(=O)[nH]c3c2)ccc1Cl,–,"inconclusive: 5.8 µM [activator, partial curve, poor fit]"

SMILES,"activity change, negative = inhibition",Potency
CC1=C2[C@H]3OC(=O)[C@@H](C)[C@@H]3CC[C@@]2(C)C=CC1=O,inactive: 18.8%,–
c1csc(-c2nnc(COc3ccc4c(c3)OCO4)o2)c1,–,"inconclusive: 25.9 µM [activator, single point]"
c1cc2c(cc1[C@H]1OCC3C1CO[C@@H]3c1ccc3c(c1)OCO3)OCO2 (stereo partly specified),–,"inconclusive: 18.3 µM [inhibitor, partial curve, poor fit]"
Cc1nc2ccccc2c(=O)n1-c1ccncc1,inactive: 10.7%,–
COc1ccc(N2C(=O)/C(=C/c3ccc(C)o3)C(=O)NC2=S)cc1,inactive: 24.8%,–
Oc1cccc(/C=N/NP(=S)(c2ccccc2)c2ccccc2)c1,inactive: -20.2%,–
N=C1C(c2ccccc2)=C(O)CN1Cc1ccco1,inactive: 5.32%,–
COc1cccc(N2C(=O)NC(=O)/C(=C/c3ccc4c5c(cccc35)CC4)C2=O)c1,inactive: 1.38%,–
CCCc1cc(=O)oc2c3c(cc(OCC(=O)N4CCC[C@H]4C(=O)O)c12)OC(C)(C)CC3,–,"inconclusive: 0.164 µM [activator, partial curve, poor fit]"
CC(C)C1(C)N=C(c2nc3ccccc3cc2C(=O)O)NC1=O (stereo unspecified),–,"inconclusive: 3.66 µM [activator, partial curve, poor fit]"
CC(C)N1CC=C(c2c[nH]c3ccccc23)CC1,–,"inconclusive: 0.517 µM [inhibitor, partial curve, poor fit]"
O=C(Cc1ccccc1)N1CCN(Cc2cccc(Br)c2)CC1,inactive: -20.9%,–
CCN(CC)c1ccc(CNCCc2ccccc2F)cc1,–,"inconclusive: 25.9 µM [inhibitor, partial curve, poor fit]"
CCCN(CCC)C1CCc2ccc(O)cc2C1 (stereo unspecified),inactive: 16%,–
Cn1ncnc2c(=O)n(C)c(=O)nc1-2,–,active: 6.51 µM
C[C@H](CO)N1C[C@H](C)[C@@H](CN(C)C(=O)Nc2ccccc2)Oc2c(NS(=O)(=O)c3ccc(F)cc3)cccc2C1=O,–,"inconclusive: 23.1 µM [activator, single point]"
Fc1cccc(F)c1-c1nc(-c2ccc(Cl)cc2)no1,–,"inconclusive: 23.1 µM [activator, partial curve, poor fit]"
CCC(=O)c1ccc(OCC(=O)N2CCN(CC(=O)Nc3ccccc3C(F)(F)F)CC2)cc1,–,active: 16.4 µM
CN(C)C1(c2nnnn2CCOC(=O)Nc2ccc(Cl)cc2)CCCCC1,–,"inconclusive: 32.6 µM [inhibitor, partial curve, poor fit]"
CC(Cc1ccccc1)[n+]1cc(/N=C(\[O-])N(C)C)on1 (stereo unspecified),–,"inconclusive: 13 µM [activator, single point]"
C[C@H]1CCC[C@H](O)CCCCCc2cc(O)cc(O)c2C(=O)O1,–,active: 7.31 µM
O=c1oc2ccccc2n1CSC1=NCCS1,–,"inconclusive: 13 µM [inhibitor, partial curve, poor fit]"

# — PubChem BioAssay AID504467 (National Center for Advancing Translational Sciences (NCATS), 2011)
